The source of these data is paper PMC4933465.

Amino acid sequences for entries named in this document (tags omitted). A change or cut given only in a name is not applied to a line headed by its entry. Chains listed by the source or under a name are the forms on record and can include a tag or linker. Residues count along the entry.
UniProt P98066, residues 36-133: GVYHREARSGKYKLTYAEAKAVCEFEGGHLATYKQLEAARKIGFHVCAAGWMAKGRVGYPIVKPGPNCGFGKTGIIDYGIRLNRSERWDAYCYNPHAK
CCL2 R18A/K19A (P13500, form named): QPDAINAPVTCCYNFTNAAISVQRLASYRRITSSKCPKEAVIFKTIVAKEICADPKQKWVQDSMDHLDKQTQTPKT
CCL5 R44A/K45A/R47A (P13501, form named): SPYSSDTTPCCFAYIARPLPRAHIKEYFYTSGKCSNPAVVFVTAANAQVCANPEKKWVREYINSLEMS
CCL7 K18A/K19A/K22A (P80098, form named): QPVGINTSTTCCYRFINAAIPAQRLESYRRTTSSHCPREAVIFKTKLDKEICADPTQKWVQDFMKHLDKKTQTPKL

Results are given in words; binding and its absence hold for the method and conditions named. Some binding calls cover weakened binding; strength is not graded here.

This test deals with Link_TSG6 (recombinant Link module from human TSG-6) (human) (UniProt P98066). The test can be described thus: SPR; Link_TSG6 amine-coupled to a C1 chip (800–1000 RU), chemokine as analyte; BIAcore 3000; 10 mM HEPES, 150 mM NaCl, 0.05% Tween 20, pH 7.4; 40 μl/min; 1:1 Langmuir model; apparent affinities; both purified. For orientation: SPR reads the build-up and loss of mass on a sensor chip optically.
For the substance “CCL2 R18A/K19A (from UniProt P13500 24-99) (ligand)”, the binding result is on record as “no binding (tested: 1000 nM)”.

Turning to “CCL5 R44A/K45A/R47A (from UniProt P13501 24-91) (ligand)”, the binding result is on record as “no binding (tested: 200 nM)”.

Regarding “CCL7 K18A/K19A/K22A (from UniProt P80098 24-99) (ligand)”, the binding result is listed as “binds weakly”.
